Among the data in US20030157685A1 are binding values, retold here.

No constants are given. Whether binding was seen depends on the method and setting. Binding can be weak; no strength is given. Sequences can lack the tags named with a protein.

This test has as its target carboxy terminus of Myc. The experiment in a line: yeast two-hybrid.

B1: p32.2, polypeptide of 756 amino acids encoded by clone 32.2, fused in frame with the B42 activation domain of the pJG-4.5 vector (protein, not shown: large carriers)
chain: IENDQQHQAAELECEEDVIPDSPITAFSFSGVNRLRRKENPHVRYIEQTHTKLEHSVCANEMRKVSKSSTHPQHNPNENEILVADTYDQSQSPMAKAHGTSSYTPDKSSFNLATVVAETLGLGVQEESETQGPMSPLGDELYHCLEGNHKKQPFEESTRNTEDSLRFSDSTSKTPPQEELPTRVSSPVFGATSSIKSGLDLNTSLSPSLLQPGKKKHLKTLPFSNTCISRLEKTRSKSEDSALFTHHSLGSEVNKIIIQSSNKQILINKNISESLGEQNRTEYGKDSNTDKHLEPLKSLGGRTSKRKKTEEESEHEVSCPQASFDKENAFPFPMDNQFSMNGDCVMDKPLDLSDRFSAIQRQEKSQGSETSKNKFRQVTLYEALKTIPKGFSSSRKASDGNCTLPKDSPGEPCSQECIILQPLNKCSPDNKPSLQIKEENAVFKIPLRPRESLETENVLDDIKSAGSHEPIKIQTRSDHGGCELASVLQLNPCRTGKIKSLQNNQDVSFENIQWSIDPGADLSQYKMDVTVIDTKDGSQSKLGGETVDMDCTLVSETVLLKMKKQEQKGEKSSNEERKMNDSLEDMFDRTTHEEYESCLADSFSQAADEEEELSTATKKLHTHGDKQDKVKQKAFVEPYFKGDERETSLQNFPHIECVRKKEERRKLLGHTCKECEIYYADMPAEEREKKLASCSRHRFRYIPPNTPENFWEVGFPSTQTCMERGYIKEDLDPCPRPKRRQPYNAIFSPKGKEQKT
Regarding B1, the binding result is “binds”.
